Results deposited as PubChem BioAssay AID743121 (NCATS, 2013).
Test: 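Partners whose loss is lethal together with topoisomerase I blockade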 (primary screen). System: MDA-MB-231 cells, a human breast cancer line. Knock-down reagent: single siRNA against human genes, 20 nM siRNA (0.8 pmol per well). Time to read-out: 120 h (drug added 48 h after transfection, read 72 h later). Challenge: camptothecin 20 nM (about EC30) for 72 h; vehicle 0.1% DMSO in parallel plates. Measured: 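CellTiter-Glo ATP signal, scaled to control siRNA as percent viability; sensitisation given as log2 of untreated divided by camptothecin-treated viability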. Direction: log2 vehicle/camptothecin viability: higher = stronger sensitisation to camptothecin. Rule for the call: 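Each gene scored by redundant siRNA activity (RSA) over its individual siRNA ratios; a gene is called active at p < 0.001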.
The whole screen tested about 26,000 reagents; this is an unselected part. Of all reagents, 167 (0.63%) were called active. 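Calls are per gene from RSA p-values that are not deposited; an individual active-marked siRNA can sensitise only weakly.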 Unmarked entries are inactive. The numbers tell different reagents against one gene apart. Not all columns of the deposit are shown. Reagent sequences are not shown.

log2 vehicle/camptothecin viability, by gene and reagent
GPR158: #1 -0.262; #2 -0.344; #3 -0.158; #4 -0.324
CCDC86: #1 -0.25; #2 -0.545; #3 0.0892; #4 0.142
NDC80: #1 -0.545; #2 0.45; #3 -0.0799; #4 -0.493
TAX1BP1: #1 -0.584; #2 -0.0653; #3 -0.214; #4 -0.289

Ordered by “log2 vehicle/camptothecin viability” (ascending): some entries from above.
gene	reagent	log2 vehicle/camptothecin viability
TAX1BP1	1	-0.584
TAX1BP1	2	-0.0653

Further entries:
log2 vehicle/camptothecin viability, by gene and reagent
GPR37: #1 -0.304; #2 -0.299; #3 -0.188; #4 -0.247
RORC: #1 0.321; #2 -0.412; #3 0.0996; #4 0.984
ETV4: #1 -0.2; #2 -0.342; #3 -0.481; #4 -0.0567
